No constants are given. Whether binding was seen depends on the method and setting. Some results given as binding are weak or reduced against the parent protein; the word gives no strength. One block for each binder: values may come before it.
Key:
[1] = target: HALC18-6_278; test: negative stain EM, 2D class averages and 3D maps; self-association of protomers (hexamer)
[2] = target: HALC18-6_265; test: single particle cryoEM; self-association of protomers
[3] = target: HALC2_065; test: X-ray crystal structure; self-association of protomers
[4] = target: HALC2_065; test: X-ray crystallography; self-association of protomers (homo-dimer)

binding [1]: binds
B1: HALC18-6_278 (protein, not shown: small tags and cut ends)
chain: GERTDNPYYIGLLLKHLGEGLKKNKKLEKLKLDLPVFTTEPNPILEEGFKLLGEGLANIESPLDLEIKILGERTDNPYYIGLLLKHLGEGLKKNKKLEKLKLDLPVFTTEPNPILEEGFKLLGEGLANIESPLDLEIKILGERTDNPYYIGLLLKHLGEGLKKNKKLEKLKLDLPVFTTEPNPILEEGFKLLGEGLANIESPLDLEIKIL

binding [2]: binds
B2: HALC18-6_265 (protein, not shown: small tags and cut ends)
chain: NIKIPNPKDLSELLKKLGEGLKGLPNLKTLTLTLSNIELPEDADLSPGAEGLGEGLKGLPNLETLTFTISNIKIPNPKDLSELLKKLGEGLKGLPNLKTLTLTLSNIELPEDADLSPGAEGLGEGLKGLPNLETLTFTISNIKIPNPKDLSELLKKLGEGLKGLPNLKTLTLTLSNIELPEDADLSPGAEGLGEGLKGLPNLETLTFTIS

binding [3]: binds
binding [4]: binds
B3: HALC2_065 (protein)
chain: SEEEKPIVIDLNKTIERDGRKVKLVRATITVDPETNTITIDIEYEGGPITKEDLLEAFKLAASKL

— patent US20240013853A1 (University of Washington, published 2024)
